# Reference: patent publication US8933270B2, “Use of docasatrienes, resolvins, and their stable analogs in the treatment of airway diseases and asthma” (The Brigham and Women's Hospital, Inc., priority 2002, dated 2015)
# Assay: PD1 extraction from murine lung, LC-PDA-MS-MS quantitation
# Parameters: species or system mice
# Settings: mean+/−SEM, n=3
smiles,measurement,value
"CC/C=C\C[C@H](O)\C=C/C=C/C=C/C(O)C/C=C\C/C=C\CCC(=O)O (stereo in doubt) [PD1, 10,17S-dihydroxy-4,7,15,19-cis-11,13-trans-docosahexaenoic acid]",PD1 generated from endogenous sources during allergic airway inflammation,2.01+/−0.68 ng/mouse lungs
